The filed quantity is “Percent Effect” (%).
The record does not define 0% and 100%; most values in the screen are far below 50% and negative numbers occur (in some assays of this library far below -100).
The compounds are a random part of those screened.

Amino acid sequences for entries named in this document (tags omitted). Residues count along the entry.
UniProt Q8IDJ8, 1-583: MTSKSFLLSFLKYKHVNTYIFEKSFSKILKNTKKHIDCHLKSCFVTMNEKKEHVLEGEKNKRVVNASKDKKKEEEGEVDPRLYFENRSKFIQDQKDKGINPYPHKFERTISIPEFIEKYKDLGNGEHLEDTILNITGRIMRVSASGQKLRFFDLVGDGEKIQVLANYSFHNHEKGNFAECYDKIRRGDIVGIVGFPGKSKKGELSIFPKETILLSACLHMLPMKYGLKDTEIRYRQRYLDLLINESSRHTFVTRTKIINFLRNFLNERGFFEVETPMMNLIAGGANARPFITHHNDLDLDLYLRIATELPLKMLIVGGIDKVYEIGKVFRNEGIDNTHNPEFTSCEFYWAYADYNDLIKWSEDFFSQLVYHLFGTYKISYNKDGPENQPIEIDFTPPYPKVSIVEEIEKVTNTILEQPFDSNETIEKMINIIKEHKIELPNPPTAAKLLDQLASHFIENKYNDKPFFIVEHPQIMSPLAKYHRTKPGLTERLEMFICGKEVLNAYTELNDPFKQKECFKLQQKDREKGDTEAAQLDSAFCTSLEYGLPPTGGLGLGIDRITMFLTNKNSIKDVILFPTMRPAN

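Enzyme assay of the cytosolic lysyl-tRNA synthetase in 384-well plates, read by luminescence. Target: Lysine-tRNA ligase, Plasmodium falciparum 3D7 (UniProt Q8IDJ8). Compounds at 30 µM. Higher reads as stronger inhibition, judged from the few compounds that gave an IC50. About 69,000 compounds were tested under these conditions; 0.071% (about 49) showed 50% or more at least once.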

| Compound | percent effect |
|---|---|
| `CCC(CC)(CC)NC(=O)Nc1nnc(-c2ccccn2)s1` | 5.295 |
| `c1cncc(COCC2CN(Cc3ccco3)Cc3nccn3C2)c1` (centres unmarked) | 2.263 |
| `CC(C)c1nc(CN(C)C2CCN(CCNS(C)(=O)=O)C2)no1` (centres unmarked) | -1.274 |
| `O=C(NCCc1nnc2n1CCC2)c1ccccc1OC1CCCC1` | 6.124 |
| `OC1CCCOC12CCN(Cc1nnc(-c3cccnc3)o1)CC2` (centres unmarked) | 2.313 |
| `CO[C@@H]1CCN(S(=O)(=O)N(C)C)[C@@H]2CN(Cc3cccnc3)C[C@@H]21` | 0.9442 |
| `Cc1ccc(OCC(=O)Nc2cc(C(=O)O)cc(S(C)(=O)=O)c2)cc1C` | -1.23 |
| `CCN1CCN(C(=O)c2ccc(=O)n(C)c2)c2ccccc21` | 3.282 |
| `O=C(Nc1nnn[nH]1)c1ccc(-n2cccc2)c(F)c1` | 12.88 |
| `CN(C)C(=O)N1CCN(C(=O)C(c2ccccc2F)N(C)C)CC1` (centres unmarked) | 4.679 |
| `Cc1cnn(CC2CCCCN2Cc2nccn2CC(F)(F)F)c1` (centres unmarked) | -1.166 |
| `N#Cc1cc(S(N)(=O)=O)ccc1NC1CCc2c(F)cccc21` (centres unmarked) | 4.175 |
| `Cc1cnn(CC2CCCN2Cc2cc(=O)n3cc(C)ccc3n2)c1` (centres unmarked) | 1.635 |
| `COc1ccccc1C(=O)N1CCOC2(CCCN(C(C)=O)C2)C1` (centres unmarked) | 0.04478 |
| `CCN(CC1CCOC1)C(=O)c1cc(F)ccc1N1CCN(C)CC1` (centres unmarked) | -3.127 |
| `CCC(C)n1cnc(S(=O)(=O)N(Cc2cccnc2)C(C)C)c1` (centres unmarked) | 2.269 |
| `CCN1CCN(c2ccc(CNC(=O)c3ccc(Cl)o3)cn2)CC1` | -2.07 |
| `CN(Cc1cccnc1)C[C@H]1OC[C@@H]2CCN(c3ncccn3)C[C@@H]21` | 12.32 |
| `Cc1n[nH]c(C)c1NC(=O)CN1CCn2c(nnc2C(C)C)C1` | 5.106 |
| `Cc1cccc(CNc2ccc(C(=O)N3CCC(CO)CC3)cc2)c1` | -0.2767 |
| `CN(C)CC1CSCCCN1S(=O)(=O)c1ccc(C(F)(F)F)cc1` (centres unmarked) | -0.6904 |
| `Cc1nccn1C1(C(=O)O)CCN(Cc2ccc3c(c2)OCCO3)CC1` | -3.918 |
| `Cc1cnc(CN(C)C2CCN(CCc3cnn(C)c3)C2)o1` (centres unmarked) | 5.443 |
| `CC(=O)Nc1nc(C(=O)NCCOc2cccc(F)c2)cs1` | 1.223 |
| `CS(=O)(=O)NC(=O)c1cnc2c(cnn2C2CCCC2)c1` | 3.619 |
| `NC(=O)COc1ccc(CNCc2ccc(F)cc2F)cc1` | 4.796 |
| `CN(CCc1ccccn1)CCc1nccs1` | -0.5045 |
| `O=C(Cn1c(=O)oc2ccccc21)NCC1(O)CCc2ccccc21` (centres unmarked) | 1.681 |
| `O=C(NCCN1CCNC1=O)c1cc(-c2ccc(O)cc2)n[nH]1` | 1.749 |
| `CN(C)c1nccc(N(C)Cc2ncnn2C)n1` | 3.086 |
| `Cc1noc(C)c1C(=O)N1C[C@@H]2C[C@@H](c3ccncn3)O[C@@H]2C1` | 5.143 |
| `c1ccc(C2CCN(c3ncnc4c3CCNC4)CC2)cc1` | 0.1066 |
| `O=C(c1ccc(Cl)cc1)N1CCC(N2CCOC2=O)CC1` | 4.248 |
| `CC1CCCN(C(=O)NCCCn2cncn2)C1` (centres unmarked) | -0.1353 |
| `COc1cc2c(c(OC)c1OC)CCN(CCn1nc(C)cc1C)CC2` | -0.2161 |
| `CCC(=O)N1CCN(c2ncnc3c(C)nn(C)c23)CC1` | 1.086 |
| `c1cc(C2CCN(c3cnccn3)CC2)ncn1` | -0.6957 |
| `CCN1CCC(CNS(=O)(=O)N2CCc3ccccc3C2)C1` (centres unmarked) | 3.356 |
| `CC(C)n1cc(CN2CCCN(C(=O)COC3CCCC3)CC2)cn1` | -1.069 |
| `CC(=O)N1CCO[C@@H]2CN(Cc3ccccc3F)C[C@@H]2C1` | 2.776 |
| `Cc1nccc(NCc2cncc3c2CCN(CCN(C)C)C3)n1` | 3.776 |
| `O=C(c1cccc(F)c1)N1CCCC1c1ncc2c(n1)CCNC2` (centres unmarked) | 3.762 |
| `CN(C)C(=O)C1(C)CN(Cc2cn(C)c3ccc(F)cc23)CCO1` (centres unmarked) | -0.8572 |
| `O=S(=O)(Nc1ccon1)c1cc(Cl)cc2c1OCC2` | 5.604 |
| `CC(C)C(=O)NC1CCCc2nc(N3CCOCC3)ncc21` (centres unmarked) | 3.04 |
| `CC(C)(C)c1cc(=O)[nH]c(C2(N)CCCCC2)n1` | 3.696 |
| `Cc1nc(CN2CCCC(c3cc(C(F)(F)F)[nH]n3)C2)cs1` (centres unmarked) | 1.522 |

Repeated from the top, 5 entries:

- CCC(CC)(CC)NC(=O)Nc1nnc(-c2ccccn2)s1 | 5.295%
- c1cncc(COCC2CN(Cc3ccco3)Cc3nccn3C2)c1 (centres unmarked) | 2.263%
- CC(C)c1nc(CN(C)C2CCN(CCNS(C)(=O)=O)C2)no1 (centres unmarked) | -1.274%
- O=C(NCCc1nnc2n1CCC2)c1ccccc1OC1CCCC1 | 6.124%
- OC1CCCOC12CCN(Cc1nnc(-c3cccnc3)o1)CC2 (centres unmarked) | 2.313%

Source: ChEMBL document CHEMBL3988442, “University of Dundee, Small-Polar-MMV Screening Library” (2021).